PubChem BioAssay AID686943 | Drosophila RNAi Screening Center – 2013
Test: 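Fly genes whose loss alters ERK activation after insulin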 (primary screen). Cells: Drosophila S2R+ haemocyte-like cells expressing YFP-tagged ERK (Rolled). Knock-down reagent: long dsRNA against Drosophila genes. Treatment: insulin stimulation versus unstimulated cells; dose and duration not given. Measured: 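Antibody staining for doubly phosphorylated ERK divided by ERK-YFP signal, as plate z-scores, in insulin-treated and untreated cells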. Scale: replicate 1, z-score of dpERK with insulin and replicate 2, z-score of dpERK with insulin: higher = more active ERK per ERK-YFP after insulin; replicate 1, z-score of dpERK under basal conditions: higher = more basal active ERK per ERK-YFP; replicate 1, z-score of ERK-YFP with insulin: higher = more YFP-tagged ERK signal.
The screen tested about 23,000 reagents; shown is a random part of those that have a named target and a result. 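Extra replicates exist only for a retested subset of genes; insulin dose and duration not given; both raised and lowered dpERK matter.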 A plus sign joins genes that one reagent is predicted to hit. Reagent sequences are not shown. Not stated in the record: the amount of reagent, the time to read-out.

gene knocked down | dsRNA | replicate 1, z-score of dpERK with insulin | replicate 2, z-score of dpERK with insulin | replicate 1, z-score of dpERK under basal conditions | replicate 1, z-score of ERK-YFP with insulin
Eip74EF | DRSC10613 | -5.46 | -5.24 | -3.39 | -1.75
Eip74EF | DRSC11160 | 0.77 | 1.26 | -1.34 | 1.41
CG31926 | DRSC00295 | 0.6 | -0.07 | 0.58 | -0.63
CG9536 | DRSC03254 | 0.01 | -0.11 | -0.09 | 0.26
vex | DRSC19481 | 0 | 0.29 | 0.1 | 0
vex | DRSC19651 | 0.32 | 0.49 | -1.61 | 0.3
vex | DRSC21843 | 0.2 | 0.63 | -0.63 | -1.24
Fer3 | DRSC16133 | 0.29 | 0.22 | 0.19 | -0.27
CG34166 | DRSC02482 | 0.39 | 0.08 | 0.84 | 0.74
CG6675 | DRSC03735 | 0.73 | 0.15 | 0.55 | -0.01
Sod3 | DRSC07324 | -0.56 | 0.08 | 0.05 | 0.52
CG31091 | DRSC15933 | 0.67 | 0.03 | 0.57 | -0.1
CG13589 | DRSC04225 | 0.71 | 0.87 | 0.56 | -0.8
S-Lap2 | DRSC10628 | 0.02 | 0.29 | -0.15 | 0.45
Vm26Ac | DRSC02329 | 0.28 | -0.01 | -0.07 | 0.1
tth | DRSC19435 | -1.13 | 0.61 | -0.89 | -0.8
CG16879 (retired record) | DRSC01918 | 0.91 | 0.11 | 0.56 | -0.24
CG16879 (retired record) | DRSC22849 | 0.06 | 0.03 | -0.55 | 0.87
CG1910 | DRSC15400 | -0.09 | 0.59 | 0.35 | 0.75
MESK2 + CG10494 | DRSC04259 | 0.14 | -0.76 | -0.65 | 1.54
PyK | DRSC16806 | -0.3 | -0.38 | 0.54 | 0.59
ClC-c | DRSC10499 | -0.93 | -0.23 | 0.88 | 1.83
CG4282 | DRSC06865 | 0.54 | 0.84 | -1.49 | -0.29
Hen1 | DRSC06139 | -0.14 | 0.03 | 0.58 | 0.26
Hen1 | DRSC06140 | -0.35 | 1.1 | -1.04 | 1.01
gig | DRSC11351 | -1.76 | -1.8 | 0.58 | -2.15
ds | DRSC00815 | -0.55 | -0.14 | 0.26 | 0.34
RNaseZ | DRSC06845 | -0.8 | 0.37 | 0.24 | 0.38
Tdc2 | DRSC04999 | -0.91 | -0.3 | 0.51 | 2.03
egg | DRSC04119 | -0.27 | -0.06 | -0.78 | 0.74
egg | DRSC22534 | 1.14 | 1.76 | 1.79 | -0.58
CG33160 | DRSC08197 | 0.5 | -0.12 | 0.36 | -0.39
CG18302 | DRSC02663 | -0.13 | -0.74 | -0.62 | 0.07

Continued, starting with the last 6 of the part before.
gene knocked down | dsRNA | replicate 1, z-score of dpERK with insulin | replicate 2, z-score of dpERK with insulin | replicate 1, z-score of dpERK under basal conditions | replicate 1, z-score of ERK-YFP with insulin
RNaseZ | DRSC06845 | -0.8 | 0.37 | 0.24 | 0.38
Tdc2 | DRSC04999 | -0.91 | -0.3 | 0.51 | 2.03
egg | DRSC04119 | -0.27 | -0.06 | -0.78 | 0.74
egg | DRSC22534 | 1.14 | 1.76 | 1.79 | -0.58
CG33160 | DRSC08197 | 0.5 | -0.12 | 0.36 | -0.39
CG18302 | DRSC02663 | -0.13 | -0.74 | -0.62 | 0.07
CheA46a | DRSC05184 | -0.5 | 0.75 | 0.49 | 0.35
CG42726 + CG42727 | DRSC14485 | 0.63 | 0.04 | -0.17 | 2.96
CG8326 | DRSC20103 | -1.58 | -0.01 | -0.55 | 2.59
Als2 | DRSC11806 | -0.49 | -0.5 | -0.21 | 0.33
Or49b | DRSC07494 | 0.05 | 0.02 | 0.72 | -0.64
CG6931 | DRSC10750 | -0.17 | 0.84 | -0.26 | 0.48
twr | DRSC12491 | 0.01 | -2.55 | -0.96 | 0.44
Rdl | DRSC08967 | 0.18 | 0.35 | -0.2 | 0.74
Rdl | DRSC11264 | 0.03 | 0.19 | -0.78 | 0.84
Karl | DRSC19883 | 0.11 | -0.57 | -0.72 | 0.15
CG15767 | DRSC18073 | 0.94 | 0.02 | -0.87 | -0.48
CG32829 | DRSC00961 | 2.68 | 1.48 | -0.42 | -1.96
CG32829 | DRSC22805 | 1.55 | 0.59 | 4.23 | -2.83
CG11920 | DRSC14439 | 0.01 | 0.09 | 5.54 | -0.72
Kif3C | DRSC17209 | -0.06 | 0.35 | -0.37 | -0.24
Kif3C | DRSC17210 | -0.36 | 0.41 | 0.17 | 0.6
Cyp4d20 | DRSC08654 | -0.15 | -0.64 | 0.07 | 0.49
Msp300 | DRSC00854 | -1.48 | -2 | 0.18 | -0.55
Msp300 | DRSC00856 | -0.24 | 1.54 | -0.48 | 0.1
Msp300 | DRSC00857 | 0.31 | 1.3 | 0.1 | 1.66
Msp300 | DRSC00858 | -0.22 | -1.05 | -1.82 | 0.2
Msp300 | DRSC02360 | 0.61 | -0.1 | 0.95 | 1.82
Msp300 | DRSC03369 | 0.87 | 1.73 | 0.14 | -0.01
Msp300 | DRSC03370 | 0.23 | -0.08 | 0.03 | 1.26
